The list is a part of this screen's results and no random one: it gathers tests that were run many times, whatever their T/C, doses with no T/C, and many T/C values between a quarter and a half above the control. Further doses and runs are listed elsewhere. T/C is the treated group as % of the vehicle group. Schedules are NCI's codes, read here as Q, the interval in days (D) or hours (H), X, the number of doses. Some T/C values are followed by the survivors on the day toxicity was checked, most often the fifth; where none is given, no animal had died by that day. Some entries give survivors of the animals treated and no T/C: the source files T/C as zero there, which appears to mark a toxic dose or a test without result, not a measured value. Counts of survivors are from the toxicity check (mostly the fifth day) where no day follows; animals may have died later. Some entries were tested several times; the results are listed from low to high.
Test system: CD8F1 mice, subcutaneous mammary adenocarcinoma, T/C%
Experiment: NCI In Vivo Anticancer Drug Screen. Data for tumor model Mammary Adenocarcinoma CD8F1 (subcutaneous) in CD8F1
Details: higher T/C = larger tumour
Procedure, shortened: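 Compound-treated versus vehicle-treated mice with transplantable tumors; survival or tumor size compared as T/C.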

[1] = T/C endpoint: median tumor weight change, dose: 250.0 mg/kg/injection, schedule: Q01DX001 (ip), vehicle: distilled water + Tween-80

CCSC(=O)N1c2ccc(OC)cc2C=CC1C#N (centres undefined)
T/C (T/C endpoint: median tumor weight (est.), dose: 200.0 mg/kg/injection, schedule: Q07DX005 (ip), vehicle: saline with Tween-80, evaluated on day 30): 129 % of control [9 of 10 alive]
survivor count (T/C endpoint: median tumor weight (est.), dose: 1800.0 mg/kg/injection, schedule: Q07DX005 (ip), vehicle: saline with Tween-80): 4 of 10 on day 30
survivor count (T/C endpoint: median tumor weight (est.), dose: 3600.0 mg/kg/injection, schedule: Q07DX005 (ip), vehicle: saline with Tween-80): 2 of 10 on day 30

O=S(=O)(O)O.[NH-]C1CCCCC1[NH-].[Pt+2] (centres undefined)
survivor count (T/C endpoint: median tumor weight (est.), dose: 10.0 mg/kg/injection, schedule: Q07DX005 (ip), vehicle: dextrose): 5 of 10

COC(=O)CC(N)C(=O)O (centres undefined)
T/C (T/C endpoint: median tumor weight change, dose: 62.5 mg/kg/injection, schedule: Q01DX001 (ip), vehicle: saline, evaluated on day 36): 149 % of control
survivor count (T/C endpoint: median tumor weight change, dose: 500.0 mg/kg/injection, schedule: Q01DX001 (ip), vehicle: saline): 1 of 10 on day 36
survivor count (T/C endpoint: median tumor weight change, dose: 1000.0 mg/kg/injection, schedule: Q01DX001 (ip), vehicle: saline): 1 of 10 on day 36

CSc1ncnc2c1ncn2C1OC(CO)C(O)C1O (centres undefined)
survivor count (T/C endpoint: median tumor weight change, dose: 500.0 mg/kg/injection, schedule: Q01DX001 (ip), vehicle: saline + alcohol): 0 of 10 on day 35

Oc1c(Cl)cc(Cl)cc1C=NCCSc1ccc(Cl)cc1
survivor count (T/C endpoint: median tumor weight change, dose: 1000.0 mg/kg/injection, schedule: Q01DX001 (ip), vehicle: Klucel (hydroxypropylcellulose) (HPC)): 0 of 10 on day 29 and 0 of 10 on day 34

COc1nc(C(Cl)(Cl)Cl)c(Cl)c(OC)c1Cl
T/C (T/C endpoint: median tumor weight change, dose: 62.5 mg/kg/injection, schedule: Q01DX001 (ip), vehicle: Klucel (hydroxypropylcellulose) (HPC), evaluated on day 29): 130 % of control
T/C (T/C endpoint: median tumor weight change, dose: 125.0 mg/kg/injection, schedule: Q01DX001 (ip), vehicle: Klucel (hydroxypropylcellulose) (HPC), evaluated on day 35): 133 % of control
survivor count (T/C endpoint: median tumor weight change, dose: 200.0 mg/kg/injection, schedule: Q01DX005 (ip), vehicle: Klucel (hydroxypropylcellulose) (HPC)): 4 of 10 on day 27
survivor count (T/C endpoint: median tumor weight change, dose: 300.0 mg/kg/injection, schedule: Q01DX005 (ip), vehicle: Klucel (hydroxypropylcellulose) (HPC)): 0 of 10 on day 27 and 3 of 10 on day 22

CC1C(=O)c2cc3c(cc2CCN(C)Cc2c1ccc1c2OCO1)OCO3 (centres undefined)
survivor count (T/C endpoint: median tumor weight change, dose: 50.0 mg/kg/injection, schedule: Q01DX001 (ip), vehicle: saline with Tween-80): 1 of 10 on day 28
survivor count (T/C endpoint: median tumor weight change, dose: 100.0 mg/kg/injection, schedule: Q01DX001 (ip), vehicle: saline with Tween-80): 1 of 10 on day 28

NS(=O)(=O)OCCCCCCCOS(N)(=O)=O
survivor count (T/C endpoint: median tumor weight change, dose: 500.0 mg/kg/injection, schedule: Q01DX001 (ip), vehicle: saline with Tween-80): 0 of 10 on day 28 and 2 of 10 on day 36
survivor count (T/C endpoint: median tumor weight change, dose: 1000.0 mg/kg/injection, schedule: Q01DX001 (ip), vehicle: saline with Tween-80): 0 of 10 on day 36

CC(CN1CC(=O)NC(=O)C1)N1CC(=O)NC(=O)C1 (centres undefined)
survivor count (T/C endpoint: median tumor weight (est.), dose: 800.0 mg/kg/injection, schedule: Q07DX005 (ip), vehicle: Klucel (hydroxypropylcellulose) (HPC)): 0 of 10 on day 30

CN(C)c1ccc2c(NCCCCCCNc3ccnc4cc(N(C)C)ccc34)ccnc2c1
T/C (T/C endpoint: median tumor weight change, dose: 62.0 mg/kg/injection, schedule: Q01DX001 (ip), vehicle: distilled water + Tween-80 + alcohol, evaluated on day 31): 130 % of control
survivor count (T/C endpoint: median tumor weight change, dose: 125.0 mg/kg/injection, schedule: Q01DX001 (ip), vehicle: distilled water + Tween-80 + alcohol): 6 of 10 on day 56
survivor count (T/C endpoint: median tumor weight change, dose: 125.0 mg/kg/injection, schedule: Q01DX001 (ip), vehicle: distilled water + Tween-80): 5 of 10 on day 31
survivor count [1]: 3 of 10 on day 31
survivor count (T/C endpoint: median tumor weight change, dose: 500.0 mg/kg/injection, schedule: Q01DX001 (ip), vehicle: distilled water + Tween-80 + alcohol): 1 of 10 on day 31
survivor count (T/C endpoint: median tumor weight change, dose: 500.0 mg/kg/injection, schedule: Q01DX001 (ip), vehicle: distilled water + Tween-80): 1 of 10 on day 31

COc1cccc2c1C(=O)c1c(O)c3c(c(O)c1C2=O)C[C@@](O)(C(O)CO)C[C@@H]3OC1CC(N(Cc2ccccc2)Cc2ccccc2)C(O)C(C)O1 (some centres undefined)
survivor count (T/C endpoint: median tumor weight change, dose: 250.0 mg/kg/injection, schedule: Q01DX001 (ip), vehicle: water): 5 of 10 on day 28
survivor count (T/C endpoint: median tumor weight change, dose: 500.0 mg/kg/injection, schedule: Q01DX001 (ip), vehicle: water): 1 of 10 on day 28

CCOC(=O)c1ccc(NN=NCCF)cc1
survivor count [1]: 0 of 10 on day 40

Nc1nc(N)c2cc(CNc3ccc(C(=O)NC(CC(=O)O)CC(=O)O)cc3)ccc2n1
survivor count (T/C endpoint: median tumor weight (est.), dose: 200.0 mg/kg/injection, schedule: Q07DX005 (ip), vehicle: Klucel (hydroxypropylcellulose) (HPC)): 0 of 10 on day 30
survivor count (T/C endpoint: median tumor weight (est.), dose: 400.0 mg/kg/injection, schedule: Q07DX005 (ip), vehicle: Klucel (hydroxypropylcellulose) (HPC)): 0 of 10 on day 30

Reference: PubChem BioAssay AID220 (DTP/NCI, 2004)
